Results published in patent publication US20260218127A1, “METHODS FOR THE PRODUCTION OF HUMAN MELANOCYTES FROM PLURIPOTENT STEM CELLS” (CENTRE D'ETUDE DES CELLULES SOUCHES (CECS), priority 2023, published 2026).
At least one compound was matched to its structure with a doubt left.

System: mel-hPSC
Assay: Maturation of melanocytes between P0 and P2 (cell pellet pigmentation, melanin assay)
Type: cell-based, human
Conditions: added to the media, P0 to P2, 2D protocol

For `C=C[C@@]1(C)CC(=O)[C@]2(O)[C@@]3(C)[C@@H](O)CCC(C)(C)[C@@H]3[C@H](O)[C@H](OC(C)=O)[C@@]2(C)O1` [forskolin, Forskolin], the “effect on maturation of melanocytes” value was “induced the maturation of melanocytes”.
